According to paper PMC10764673:

B1: OsPP2C50 (cLUC fusion) (protein, UniProt Q6L5H6 1-387)
chain: MAAAAAAAAICGEDETAARVGCTGEWAGGIERVDLGERKEAVAAAGAGKRSVYLMDCAPVWGCASTRGRSAEMEDASAAVPRFADVPVRLLASRRDLDALGLDADALRLPAHLFGVFDGHGGAEVANYCRERIHVVLSEELKRLGKNLGEMGEVDMKEHWDDVFTKCFQRVDDEVSGRVTRVVNGGGEVRSEPVTAENVGSTAVVALVCSSHVVVANCGDSRIVLCRGKEPVALSIDHKPDRKDERARIEAQGGKVIQWNGYRVSGILAMSRSIGDRYLKPFVIPKPEVMVVPRAKDDDCLILASDGLWDVVSNEEACKVARRQILLWHKNNGAASPLSDEGEGSTDPAAQAAADYLMRLALKKGSEDNITVIVVDLKPRKKLKNIS
B2: OsPYL5 (protein, UniProt Q6I5C3 1-209)
chain: MVGLVGGGGWRVGDDAAGGGGGGAVAAGAAAAAEAEHMRRLHSHAPGEHQCSSALVKHIKAPVHLVWSLVRSFDQPQRYKPFVSRCVVRGGDLEIGSVREVNVKTGLPATTSTERLELLDDDEHILSVKFVGGDHRLRNYSSIVTVHPESIDGRPGTLVIESFVVDVPDGNTKDETCYFVEAVIKCNLTSLAEVSERLAVQSPTSPLEQ
B3: OsPP2C50 (protein, UniProt Q6L5H6 1-387)
chain: B1 chain
B4: OsSAPK8 (protein, UniProt Q7Y0B9 1-371)
chain: MAAAGAGAGAPDRAALTVGPGMDMPIMHDSDRYELVRDIGSGNFGVARLMRDRRTMELVAVKYIERGEKIDDNVQREIINHRSLKHPNIIRFKEVILTPTHLAIVMEYASGGELFERICKNVRFSEDEARYFFQQLISGVSYCHSMQVCHRDLKLENTLLDGSPAPRLKICDFGYSKSSVLHSQPKSTVGTPAYIAPEVLLKKEYDGKTADVWSCGVTLYVMVVGAYPFEDPEEPKNFRKTIQRILNVQYSIPENVDISPECRHLISRIFVGDPSLRITIPEIRSHGWFLKNLPADLMDDDSMSSQYEEPDQPMQTMDQIMQILTEATIPPACSRINHILTDGLDLDDDMDDLDSDSDIDVDSSGEIVYAM

Key:
[1] = target: OsMPK7 (nLUC fusion) (rice (Oryza sativa)); assay: split reporter; luciferase complementation in N. benthamiana leaves: nLUC-OsMPK7 co-injected with each cLUC fusion, 48 h, D-luciferin, chemiluminescence imaging
[2] = target: OsMPK7 (rice (Oryza sativa)); assay: two-hybrid; OsMPK7 in pGBKT7 as bait, preys in pGADT7; growth on QD (quadruple-dropout medium lacking Ade, His, Leu and Trp), DD as control

Row | Binder | binding [1] | binding [2]
1 | B1 | binds | 
2 | B2 |  | binds
3 | B3 |  | binds
4 | B4 |  | no binding

Results are given in words; binding and its absence hold for the method and conditions named. A result given as binding can be weak or reduced; the word gives no strength. For some of these results: Binding seen in cells or lysates may run through a third protein. For some of these results: Sequences can lack the tags named with a protein.
